The supplement of paper PMC10849652
Some of the results follow.

Amino acid sequences for entries named in this document (tags omitted). A change or cut given only in a name is not applied to a line headed by its entry.
UniProt Q86VR2, whole entry, looked up: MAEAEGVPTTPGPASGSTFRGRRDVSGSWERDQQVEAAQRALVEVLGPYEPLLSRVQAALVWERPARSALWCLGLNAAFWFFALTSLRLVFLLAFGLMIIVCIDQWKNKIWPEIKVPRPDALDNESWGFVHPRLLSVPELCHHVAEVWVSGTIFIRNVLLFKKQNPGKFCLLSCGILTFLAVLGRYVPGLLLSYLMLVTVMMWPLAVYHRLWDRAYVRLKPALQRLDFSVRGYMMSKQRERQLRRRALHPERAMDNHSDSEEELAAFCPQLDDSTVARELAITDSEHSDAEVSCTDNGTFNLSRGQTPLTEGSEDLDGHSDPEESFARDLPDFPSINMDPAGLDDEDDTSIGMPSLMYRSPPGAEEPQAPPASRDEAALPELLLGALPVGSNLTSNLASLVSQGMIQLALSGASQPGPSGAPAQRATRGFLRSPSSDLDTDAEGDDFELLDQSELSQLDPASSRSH
UniProt P48382: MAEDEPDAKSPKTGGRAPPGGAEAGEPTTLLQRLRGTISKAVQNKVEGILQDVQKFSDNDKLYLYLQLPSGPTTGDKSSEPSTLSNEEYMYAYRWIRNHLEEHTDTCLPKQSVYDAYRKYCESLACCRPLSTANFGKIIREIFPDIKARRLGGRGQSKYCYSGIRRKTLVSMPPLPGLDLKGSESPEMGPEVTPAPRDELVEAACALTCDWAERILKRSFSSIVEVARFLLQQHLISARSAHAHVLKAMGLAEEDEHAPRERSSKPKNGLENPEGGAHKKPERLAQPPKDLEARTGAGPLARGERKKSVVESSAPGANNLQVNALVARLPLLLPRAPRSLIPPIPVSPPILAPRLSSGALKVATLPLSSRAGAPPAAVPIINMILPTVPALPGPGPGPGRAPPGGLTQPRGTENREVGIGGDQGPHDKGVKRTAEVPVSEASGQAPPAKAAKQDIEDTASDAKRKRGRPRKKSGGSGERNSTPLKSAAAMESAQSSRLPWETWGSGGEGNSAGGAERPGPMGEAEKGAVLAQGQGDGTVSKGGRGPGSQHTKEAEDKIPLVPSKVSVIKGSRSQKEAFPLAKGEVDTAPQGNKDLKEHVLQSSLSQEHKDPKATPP
UniProt Q96PM5: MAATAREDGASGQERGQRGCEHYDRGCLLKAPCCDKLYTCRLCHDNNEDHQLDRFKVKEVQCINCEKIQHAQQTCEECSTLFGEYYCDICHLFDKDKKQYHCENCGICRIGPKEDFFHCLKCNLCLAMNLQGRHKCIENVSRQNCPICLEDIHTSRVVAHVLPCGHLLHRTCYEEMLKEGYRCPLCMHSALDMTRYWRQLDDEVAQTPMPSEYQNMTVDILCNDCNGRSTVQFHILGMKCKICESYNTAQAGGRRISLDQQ
UniProt P51606: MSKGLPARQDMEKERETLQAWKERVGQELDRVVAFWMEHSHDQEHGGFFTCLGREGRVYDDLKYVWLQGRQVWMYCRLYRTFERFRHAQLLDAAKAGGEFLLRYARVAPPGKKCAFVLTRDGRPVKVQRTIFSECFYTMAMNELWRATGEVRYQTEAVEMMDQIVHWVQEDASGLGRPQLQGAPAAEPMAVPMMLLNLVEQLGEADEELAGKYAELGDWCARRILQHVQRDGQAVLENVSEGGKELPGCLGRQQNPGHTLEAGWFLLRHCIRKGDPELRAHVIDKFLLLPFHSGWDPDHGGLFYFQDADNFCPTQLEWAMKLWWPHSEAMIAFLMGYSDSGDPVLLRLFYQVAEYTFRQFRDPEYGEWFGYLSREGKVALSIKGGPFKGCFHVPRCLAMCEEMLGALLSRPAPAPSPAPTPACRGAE
UniProt Q09028, whole entry, looked up: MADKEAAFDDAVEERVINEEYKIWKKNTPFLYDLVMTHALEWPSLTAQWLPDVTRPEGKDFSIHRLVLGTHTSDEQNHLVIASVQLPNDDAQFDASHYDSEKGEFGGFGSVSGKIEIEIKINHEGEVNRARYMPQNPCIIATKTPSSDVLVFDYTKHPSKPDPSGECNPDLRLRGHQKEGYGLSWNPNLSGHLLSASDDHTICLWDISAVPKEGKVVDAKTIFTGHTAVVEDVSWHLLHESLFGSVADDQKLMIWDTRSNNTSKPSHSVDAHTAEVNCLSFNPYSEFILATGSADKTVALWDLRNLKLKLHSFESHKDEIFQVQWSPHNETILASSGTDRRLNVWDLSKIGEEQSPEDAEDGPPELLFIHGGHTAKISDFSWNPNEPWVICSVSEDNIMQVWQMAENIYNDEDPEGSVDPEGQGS
UniProt P35249, whole entry, looked up: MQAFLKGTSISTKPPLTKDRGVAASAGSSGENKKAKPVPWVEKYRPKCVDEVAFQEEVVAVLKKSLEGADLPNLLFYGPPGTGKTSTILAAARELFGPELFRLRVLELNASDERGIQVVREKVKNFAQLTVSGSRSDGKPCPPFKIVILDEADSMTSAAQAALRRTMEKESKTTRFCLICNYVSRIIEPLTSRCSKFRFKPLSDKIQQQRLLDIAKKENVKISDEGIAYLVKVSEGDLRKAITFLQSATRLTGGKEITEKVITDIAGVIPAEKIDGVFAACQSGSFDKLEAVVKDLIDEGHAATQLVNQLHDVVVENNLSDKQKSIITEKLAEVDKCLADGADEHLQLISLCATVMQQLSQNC
UniProt P49756, whole entry, looked up: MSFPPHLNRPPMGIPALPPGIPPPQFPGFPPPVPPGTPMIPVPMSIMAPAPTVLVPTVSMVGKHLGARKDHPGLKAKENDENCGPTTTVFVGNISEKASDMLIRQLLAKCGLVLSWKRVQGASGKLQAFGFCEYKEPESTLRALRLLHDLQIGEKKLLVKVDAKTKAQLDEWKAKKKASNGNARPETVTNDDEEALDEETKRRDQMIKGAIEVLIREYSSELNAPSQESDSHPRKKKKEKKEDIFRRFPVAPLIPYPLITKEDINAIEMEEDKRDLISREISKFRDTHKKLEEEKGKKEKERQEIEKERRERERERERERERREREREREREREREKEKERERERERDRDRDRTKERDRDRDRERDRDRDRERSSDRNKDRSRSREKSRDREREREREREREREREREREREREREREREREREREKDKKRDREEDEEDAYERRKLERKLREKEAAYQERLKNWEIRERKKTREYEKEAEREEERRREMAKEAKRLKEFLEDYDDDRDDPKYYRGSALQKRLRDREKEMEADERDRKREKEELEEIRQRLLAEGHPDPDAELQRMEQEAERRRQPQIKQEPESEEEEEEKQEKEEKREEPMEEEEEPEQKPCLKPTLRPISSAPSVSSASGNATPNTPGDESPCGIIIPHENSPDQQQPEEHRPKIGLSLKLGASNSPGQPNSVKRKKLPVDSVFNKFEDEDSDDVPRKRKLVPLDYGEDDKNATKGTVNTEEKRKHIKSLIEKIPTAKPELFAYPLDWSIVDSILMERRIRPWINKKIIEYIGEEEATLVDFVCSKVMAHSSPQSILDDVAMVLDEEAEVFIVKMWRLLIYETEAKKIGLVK
UniProt O94762: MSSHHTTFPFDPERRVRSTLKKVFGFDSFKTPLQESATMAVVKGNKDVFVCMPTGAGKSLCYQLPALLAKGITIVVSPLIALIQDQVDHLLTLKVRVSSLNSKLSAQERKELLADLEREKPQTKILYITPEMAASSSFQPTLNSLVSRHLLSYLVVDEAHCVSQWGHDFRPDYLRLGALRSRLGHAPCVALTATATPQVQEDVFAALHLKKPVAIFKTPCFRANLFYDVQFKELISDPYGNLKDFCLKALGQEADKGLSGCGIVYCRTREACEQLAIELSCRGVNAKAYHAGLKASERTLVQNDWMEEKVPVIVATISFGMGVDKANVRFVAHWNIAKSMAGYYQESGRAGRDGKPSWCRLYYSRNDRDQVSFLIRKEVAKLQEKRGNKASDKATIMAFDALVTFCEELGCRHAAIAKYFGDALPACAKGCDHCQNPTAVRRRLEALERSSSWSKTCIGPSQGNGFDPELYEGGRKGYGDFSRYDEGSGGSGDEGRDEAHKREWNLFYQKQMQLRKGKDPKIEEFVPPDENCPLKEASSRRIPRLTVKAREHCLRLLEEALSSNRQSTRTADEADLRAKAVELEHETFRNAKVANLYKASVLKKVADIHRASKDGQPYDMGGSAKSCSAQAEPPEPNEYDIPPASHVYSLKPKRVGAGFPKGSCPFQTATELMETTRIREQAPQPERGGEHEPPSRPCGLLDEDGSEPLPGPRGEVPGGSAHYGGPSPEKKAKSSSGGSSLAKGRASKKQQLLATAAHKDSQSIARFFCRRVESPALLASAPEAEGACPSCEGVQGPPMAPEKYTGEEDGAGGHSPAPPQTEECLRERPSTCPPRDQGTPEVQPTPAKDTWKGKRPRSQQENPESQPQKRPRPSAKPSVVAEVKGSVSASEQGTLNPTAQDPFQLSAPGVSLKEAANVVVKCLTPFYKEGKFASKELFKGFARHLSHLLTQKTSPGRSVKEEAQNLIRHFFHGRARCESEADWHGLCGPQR
UniProt Q2KHR2: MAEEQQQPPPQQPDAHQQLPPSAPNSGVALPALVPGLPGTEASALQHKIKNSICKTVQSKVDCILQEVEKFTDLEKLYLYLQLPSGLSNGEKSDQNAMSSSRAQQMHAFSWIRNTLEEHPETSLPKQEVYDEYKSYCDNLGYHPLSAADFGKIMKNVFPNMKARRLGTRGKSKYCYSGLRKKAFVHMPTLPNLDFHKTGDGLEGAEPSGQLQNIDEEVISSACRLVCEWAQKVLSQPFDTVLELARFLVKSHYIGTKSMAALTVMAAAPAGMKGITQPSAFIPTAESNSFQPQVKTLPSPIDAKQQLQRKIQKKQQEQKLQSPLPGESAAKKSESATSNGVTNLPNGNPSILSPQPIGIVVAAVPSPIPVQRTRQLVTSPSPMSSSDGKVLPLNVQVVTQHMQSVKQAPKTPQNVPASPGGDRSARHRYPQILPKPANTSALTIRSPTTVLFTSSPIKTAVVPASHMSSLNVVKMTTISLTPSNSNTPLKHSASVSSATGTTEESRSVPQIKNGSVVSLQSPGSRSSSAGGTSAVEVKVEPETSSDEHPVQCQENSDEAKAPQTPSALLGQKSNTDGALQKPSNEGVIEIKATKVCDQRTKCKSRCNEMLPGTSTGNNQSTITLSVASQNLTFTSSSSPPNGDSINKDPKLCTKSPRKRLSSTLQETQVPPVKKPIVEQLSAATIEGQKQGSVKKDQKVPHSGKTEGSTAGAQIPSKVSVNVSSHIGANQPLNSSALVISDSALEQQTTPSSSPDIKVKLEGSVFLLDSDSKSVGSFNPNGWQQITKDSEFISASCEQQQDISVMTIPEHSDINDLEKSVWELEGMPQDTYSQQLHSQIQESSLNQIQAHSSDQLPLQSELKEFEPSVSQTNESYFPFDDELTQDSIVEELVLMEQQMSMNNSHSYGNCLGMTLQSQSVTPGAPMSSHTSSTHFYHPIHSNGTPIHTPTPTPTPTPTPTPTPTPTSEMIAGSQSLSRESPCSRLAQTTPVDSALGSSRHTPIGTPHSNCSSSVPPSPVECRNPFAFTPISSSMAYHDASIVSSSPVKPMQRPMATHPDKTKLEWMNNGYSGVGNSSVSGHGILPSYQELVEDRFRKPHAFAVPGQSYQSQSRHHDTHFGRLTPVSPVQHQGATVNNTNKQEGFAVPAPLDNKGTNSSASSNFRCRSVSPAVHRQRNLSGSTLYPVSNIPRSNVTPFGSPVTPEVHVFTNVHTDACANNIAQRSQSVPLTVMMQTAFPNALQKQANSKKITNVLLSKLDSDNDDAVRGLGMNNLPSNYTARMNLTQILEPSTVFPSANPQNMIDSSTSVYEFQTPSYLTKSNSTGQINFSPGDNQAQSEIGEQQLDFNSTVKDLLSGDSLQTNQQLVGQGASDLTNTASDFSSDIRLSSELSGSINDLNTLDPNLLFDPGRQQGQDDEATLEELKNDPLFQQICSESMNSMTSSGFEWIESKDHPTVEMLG
UniProt Q9HBH5: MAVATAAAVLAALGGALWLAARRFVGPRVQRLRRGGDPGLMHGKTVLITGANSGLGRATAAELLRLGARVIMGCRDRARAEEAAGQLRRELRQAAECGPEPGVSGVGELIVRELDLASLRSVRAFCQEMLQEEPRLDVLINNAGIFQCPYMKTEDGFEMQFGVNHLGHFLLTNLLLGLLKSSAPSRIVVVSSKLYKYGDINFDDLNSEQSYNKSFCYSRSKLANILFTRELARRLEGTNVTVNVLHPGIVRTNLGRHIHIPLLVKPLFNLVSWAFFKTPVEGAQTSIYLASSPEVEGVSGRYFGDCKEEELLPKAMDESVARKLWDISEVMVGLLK
UniProt P98179: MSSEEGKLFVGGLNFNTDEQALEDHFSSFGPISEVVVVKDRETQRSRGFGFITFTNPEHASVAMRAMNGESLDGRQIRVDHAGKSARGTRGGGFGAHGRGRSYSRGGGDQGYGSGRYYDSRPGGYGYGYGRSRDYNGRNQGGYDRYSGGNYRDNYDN
UniProt Q9Y3B8: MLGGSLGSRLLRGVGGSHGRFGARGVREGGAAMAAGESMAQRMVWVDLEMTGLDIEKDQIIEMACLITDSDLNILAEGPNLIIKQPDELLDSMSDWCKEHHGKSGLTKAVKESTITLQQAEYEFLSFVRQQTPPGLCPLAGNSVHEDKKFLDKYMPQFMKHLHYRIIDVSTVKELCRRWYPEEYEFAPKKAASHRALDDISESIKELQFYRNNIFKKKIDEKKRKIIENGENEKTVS

Legend:
Test in all cases: log2 fold change, soluble protein after heating vs DMSO (PISA); higher = thermal stabilisation; K562 lysate, 10 uM; active = over 0.2 and 3.5 SD of the protein, either way, in both replicates (recomputed)
[1] = compound: C1=CC=C(C=C1)[C@H](COC2=CC3=C(C=C2)NC(=O)N3)NC(=O)C4=CC=CN(C4=O)CC5=CC(=C(C=C5)F)F
Procedure, shortened: (§1)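 Quantification was by TMTpro 16plex LC-MS/MS with equalised channel sums, applied to the supernatant after 21,000xg for 90 min. Samples were crude K562 extract at 1 mg/mL protein in PBS pH 7.4 with 1 mM MgCl2, treated with 10 μM compound for 30 min, heated for 3 min across 48°C-58°C, pooled and brought to 0.5% NP-40 at 4°C. Values are log-two fold changes in thermal stability relative to solvent controls, from duplicates.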

[2] = compound: CC1=C(SC2=C1C(=N[C@H](C3=NN=C(N32)C)CC(=O)N)C4=CC=C(C=C4)Cl)C
Procedure, shortened: as §1

[3] = compound: CC1=C2C(=CC=C1)N=C(N(C2=O)C3=CC=CC=C3C)CN4C=NC5=C(N=CN=C54)N
Procedure, shortened: as §1

[4] = compound: Cc1sc2c(c1C)C(c1ccc(Cl)cc1)=N[C@@H](CC(=O)OC(C)(C)C)c1nnc(C)n1-2
Procedure, shortened: as §1

[5] = compound: c1ccc([C@@H]2C[C@H]2NC2CCNCC2)cc1
Procedure, shortened: as §1

Measured: log2 fold change

RETREG3 (UniProt Q86VR2)
inactive: [1] -0.155 | [2] -0.04 | [3] 0.039 | [4] 0.045 | [5] -0.045

RBM10 isoform 5 (UniProt P98175)
inactive: [1] 0.046 | [2] -0.038 | [3] 0.044 | [4] -0.018 | [5] -0.049

RFX5 (UniProt P48382)
inactive: [1] -0.069 | [2] 0.071 | [3] 0.087 | [4] 0.057 | [5] 0.152

RELN (UniProt P78509)
inactive: [1] 0.033 | [2] -0.007 | [3] 0.025 | [4] -0.089 | [5] -0.036

REEP6 (UniProt Q96HR9)
inactive: [1] 0.038 | [2] -0.081 | [3] 0.005 | [4] -0.107 | [5] -0.181

RBM8A (UniProt Q9Y5S9)
inactive: [1] 0.066 | [2] 0.01 | [3] -0.061 | [4] 0.084 | [5] 0.171

RCN2 isoform 2 (UniProt Q14257)
inactive: [1] 0.009 | [2] -0.014 | [3] -0.019 | [4] 0.04 | [5] 0.019

RFC2 (UniProt P35250)
inactive: [1] -0.009 | [2] 0.006 | [3] -0.008 | [4] 0.043 | [5] -0.033

RELCH isoform 2 (UniProt Q9P260)
inactive: [1] 0.043 | [2] 0.056 | [3] 0.141 | [4] -0.001 | [5] 0.07

RCHY1 (UniProt Q96PM5)
inactive: [1] 0.046 | [2] 0.022 | [3] 0.081 | [4] 0.082 | [5] -0.029

RCL1 (UniProt Q9Y2P8)
inactive: [1] -0.03 | [2] -0.046 | [3] -0.062 | [4] -0.042 | [5] -0.098

RENBP (UniProt P51606)
inactive: [1] 0.021 | [2] 0.021 | [3] 0.001 | [4] -0.052 | [5] -0.002

RCC2 (UniProt Q9P258)
inactive: [1] 0.004 | [2] -0.009 | [3] 0.008 | [4] 0.012 | [5] 0.015

RFX1 (UniProt P22670)
inactive: [1] -0.002 | [2] 0.085 | [3] 0.023 | [4] -0.006 | [5] 0.018

REPS1 (UniProt Q96D71)
inactive: [1] 0.021 | [2] 0.001 | [3] -0.022 | [4] -0.033 | [5] -0.035

Quoted at random: 2 records from the list, in no set order.
RFX5 (UniProt P48382)
inactive: [1] -0.069 | [2] 0.071 | [3] 0.087 | [4] 0.057 | [5] 0.152

RELCH isoform 2 (UniProt Q9P260)
inactive: [1] 0.043 | [2] 0.056 | [3] 0.141 | [4] -0.001 | [5] 0.07

Carrying on:

RBM17 (UniProt Q96I25)
inactive: [1] -0.003 | [2] -0.004 | [3] -0.024 | [4] 0.029 | [5] 0.026

RBBP4 (UniProt Q09028)
inactive: [1] 0.022 | [2] 0.033 | [3] -0.013 | [4] 0.006 | [5] -0.066

RASA3 (UniProt Q14644)
inactive: [1] -0.066 | [2] 0.149 | [3] 0.078 | [4] 0.078 | [5] 0.047

RFC4 (UniProt P35249)
inactive: [1] -0.026 | [2] -0.059 | [3] 0.006 | [4] 0.028 | [5] 0.01

RCE1 (UniProt Q9Y256)
inactive: [1] -0.253 | [2] 0.103 | [3] 0.012 | [4] 0.062 | [5] 0.146

RBM26 isoform 2 (UniProt Q5T8P6)
inactive: [1] 0.005 | [2] 0.016 | [3] 0.047 | [4] 0.001 | [5] 0.084

RASA1 (UniProt P20936)
inactive: [1] -0.018 | [2] -0.009 | [3] -0.03 | [4] 0.036 | [5] 0.024

RCC1L (UniProt Q96I51)
inactive: [1] 0.008 | [2] 0.026 | [3] 0.068 | [4] -0.021 | [5] 0.007

RBM25 (UniProt P49756)
inactive: [1] -0.092 | [2] 0.01 | [3] 0.077 | [4] 0.024 | [5] -0.031

RECQL5 (UniProt O94762)
inactive: [1] -0.081 | [2] 0.014 | [3] 0.011 | [4] -0.174 | [5] 0.064

RFX7 (UniProt Q2KHR2)
inactive: [1] -0.035 | [2] 0.018 | [3] 0.134 | [4] -0.12 | [5] 0.008

RDH14 (UniProt Q9HBH5)
inactive: [1] 0.123 | [2] -0.016 | [3] -0.076 | [4] 0.102 | [5] -0.058

RAPGEF5, A0A590UJR0
inactive: [1] -0.129 | [2] 0.362 | [3] 0.098 | [4] 0.008 | [5] -0.057

RBM27 (UniProt Q9P2N5)
inactive: [1] -0.038 | [2] 0.074 | [3] 0.043 | [4] 0.035 | [5] 0.027

RBM5 (UniProt P52756)
inactive: [1] -0.074 | [2] 0.08 | [3] 0.062 | [4] 0.146 | [5] 0.103

RBSN (UniProt Q9H1K0)
inactive: [1] 0.031 | [2] 0.076 | [3] 0.087 | [4] 0.117 | [5] -0.019

RARS2 (UniProt Q5T160)
inactive: [1] -0.032 | [2] 0.041 | [3] 0.051 | [4] 0.006 | [5] 0.039

RBM3 (UniProt P98179)
inactive: [1] 0.054 | [2] 0.071 | [3] -0.034 | [4] -0.006 | [5] 0.021

REXO2 (UniProt Q9Y3B8)
inactive: [1] 0 | [2] 0.019 | [3] -0.026 | [4] 0.014 | [5] 0
